PubChem BioAssay AID743121 – NCATS, 2013

Aim: 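Partners whose loss is lethal together with topoisomerase I blockade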 (primary screen)
Cell system: MDA-MB-231 cells, a human breast cancer line
Reagents: single siRNA against human genes, 20 nM siRNA (0.8 pmol per well)
Timing: 120 h (drug added 48 h after transfection, read 72 h later)
Challenge: camptothecin 20 nM (about EC30) for 72 h; vehicle 0.1% DMSO in parallel plates
Measured: 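Cell viability by ATP luminescence (CellTiter-Glo) as % of non-targeting siRNA wells, and the log2 ratio of viability without drug over viability with camptothecin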
Reading the numbers: log2 vehicle/camptothecin viability: higher = stronger sensitisation to camptothecin; viability with camptothecin and viability without drug: higher = more viable cells
Active means: 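Active genes have an RSA gene-level p-value below 0.001, computed from the ratios of their separate siRNAs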
In all, the deposit lists about 26,000 reagents; below is a part drawn at random. 167 of them (0.63%) were called active. 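Calls are per gene from RSA p-values that are not deposited; an individual active-marked siRNA can sensitise only weakly.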 No sequences are given here.

no.	gene	PubChem SID	log2 vehicle/camptothecin viability	viability with camptothecin (% of control)	viability without drug (% of control)	call
1	MALT1 (GeneID 10892)	SID164414049	0.391	58.8	77.1	inactive
2	MALT1 (GeneID 10892)	SID164414051	-0.437	55.5	41	inactive
3	MALT1 (GeneID 10892)	SID164414053	0.0129	95.6	96.5	inactive
4	MALT1 (GeneID 10892)	SID164414055	-0.167	77.7	69.2	inactive
5	KLK14 (GeneID 43847)	SID164469628	0.0749	69.3	73	inactive
6	KLK14 (GeneID 43847)	SID164469630	0.173	81.3	91.7	inactive
7	KLK14 (GeneID 43847)	SID164469631	1.12	4.41	9.56	inactive
8	KLK14 (GeneID 43847)	SID164469632	-0.295	11.1	9.05	inactive
9	SERPINA6 (GeneID 866)	SID164356774	0.275	39.4	47.7	inactive
10	SERPINA6 (GeneID 866)	SID164356775	-0.32	66.8	53.5	inactive
11	SERPINA6 (GeneID 866)	SID164356776	0.0675	48.1	50.4	inactive
12	SERPINA6 (GeneID 866)	SID164356777	0.883	27.6	50.9	inactive
13	SERPINF1 (GeneID 5176)	SID164380136	-0.133	92.7	84.6	inactive
14	SERPINF1 (GeneID 5176)	SID164380140	0.242	82	97	inactive
15	SERPINF1 (GeneID 5176)	SID164380141	-0.239	107	90.3	inactive
16	SERPINF1 (GeneID 5176)	SID164380143	-0.543	79.5	54.6	inactive
17	SERPINA12 (GeneID 145264)	SID164573527	-0.149	108	97.4	inactive
18	SERPINA12 (GeneID 145264)	SID164573528	-0.0326	120	117	inactive
19	SERPINA12 (GeneID 145264)	SID164573530	-0.296	106	85.9	inactive
20	SERPINA12 (GeneID 145264)	SID164573531	0.166	23.1	25.9	inactive

Sorted by “viability without drug (% of control)” (lowest first): some entries from above
gene	PubChem SID	log2 vehicle/camptothecin viability	viability with camptothecin (% of control)	viability without drug (% of control)	call
SERPINA12 (GeneID 145264)	SID164573531	0.166	23.1	25.9	inactive
SERPINA12 (GeneID 145264)	SID164573530	-0.296	106	85.9	inactive
SERPINA12 (GeneID 145264)	SID164573528	-0.0326	120	117	inactive

The results go on:
no.	gene	PubChem SID	log2 vehicle/camptothecin viability	viability with camptothecin (% of control)	viability without drug (% of control)	call
21	PCDH18 (GeneID 54510)	SID164479123	-0.105	75.2	70	inactive
22	PCDH18 (GeneID 54510)	SID164479125	-0.402	52.4	39.6	inactive
23	PCDH18 (GeneID 54510)	SID164479126	-0.301	97.8	79.4	inactive
24	CARD14 (GeneID 79092)	SID164530560	-0.393	58	44.1	inactive
25	CARD14 (GeneID 79092)	SID164530562	0.181	46.3	52.5	inactive
26	CARD14 (GeneID 79092)	SID164530565	-0.323	46.9	37.5	inactive
27	CARD14 (GeneID 79092)	SID164530566	-0.343	58.7	46.3	inactive
28	PSMD7 (GeneID 5713)	SID164383501	-0.389	7.75	5.91	inactive
29	PSMD7 (GeneID 5713)	SID164383504	-0.446	19.1	14	inactive
30	PSMD7 (GeneID 5713)	SID164383507	-0.282	8.53	7.02	inactive
